From patent US20050130203A1, “Novel GABAB receptor DNA sequences” (Board of Regents, The University of Texas System, priority 1998, published 2005)

Test system: wild-type HEK293 cells

NCCCC(=O)O [GABA, γ-amino-butyric acid]
inhibition of forskolin-stimulated cAMP synthesis: did not exhibit
